The other results are listed elsewhere or left out.
What was measured:
Test in all cases: log2 fold change, soluble protein after heating vs DMSO (PISA); higher = thermal stabilisation; K562 lysate, 10 uM; active = over 0.2 and 3.5 SD of the protein, either way, in both replicates (recomputed)
[1] = compound: C1=CC=C(C=C1)[C@H](COC2=CC3=C(C=C2)NC(=O)N3)NC(=O)C4=CC=CN(C4=O)CC5=CC(=C(C=C5)F)F
Method in brief: (§1)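 Quantification was by TMTpro 16plex LC-MS/MS with equalised channel sums, applied to the supernatant after 21,000xg for 90 min. Samples were crude K562 extract at 1 mg/mL protein in PBS pH 7.4 with 1 mM MgCl2, treated with 10 μM compound for 30 min, heated for 3 min across 48°C-58°C, pooled and brought to 0.5% NP-40 at 4°C. Values are log-two fold changes in thermal stability relative to solvent controls, from duplicates.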

Amino acid sequences for entries named in this document (tags omitted). A change or cut given only in a name is not applied to a line headed by its entry.
UniProt P38159: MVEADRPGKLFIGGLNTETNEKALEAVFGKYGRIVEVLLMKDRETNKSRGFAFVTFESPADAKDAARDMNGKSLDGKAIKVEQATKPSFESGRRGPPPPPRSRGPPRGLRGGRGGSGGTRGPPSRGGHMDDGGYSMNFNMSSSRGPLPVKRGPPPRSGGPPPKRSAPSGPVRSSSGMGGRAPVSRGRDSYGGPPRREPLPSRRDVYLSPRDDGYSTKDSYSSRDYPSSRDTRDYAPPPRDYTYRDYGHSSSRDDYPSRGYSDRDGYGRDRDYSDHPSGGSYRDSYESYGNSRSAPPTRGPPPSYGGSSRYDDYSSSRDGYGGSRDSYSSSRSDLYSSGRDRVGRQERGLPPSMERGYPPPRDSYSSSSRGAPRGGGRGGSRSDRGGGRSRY
UniProt Q9BYM8: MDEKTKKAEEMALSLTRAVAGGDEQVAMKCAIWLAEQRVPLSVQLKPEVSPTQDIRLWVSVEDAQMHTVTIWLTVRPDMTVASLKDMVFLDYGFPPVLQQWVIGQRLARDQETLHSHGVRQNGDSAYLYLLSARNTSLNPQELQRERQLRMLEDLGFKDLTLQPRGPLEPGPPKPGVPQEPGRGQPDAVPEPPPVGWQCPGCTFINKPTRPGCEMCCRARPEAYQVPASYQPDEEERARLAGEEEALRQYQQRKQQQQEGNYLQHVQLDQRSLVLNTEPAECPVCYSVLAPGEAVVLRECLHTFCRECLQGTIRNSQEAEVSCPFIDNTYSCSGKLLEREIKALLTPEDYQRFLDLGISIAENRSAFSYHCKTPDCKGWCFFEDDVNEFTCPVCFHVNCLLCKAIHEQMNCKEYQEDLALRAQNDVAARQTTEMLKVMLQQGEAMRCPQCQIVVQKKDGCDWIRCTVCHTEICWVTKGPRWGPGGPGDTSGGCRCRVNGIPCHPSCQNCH
UniProt A6NEQ0: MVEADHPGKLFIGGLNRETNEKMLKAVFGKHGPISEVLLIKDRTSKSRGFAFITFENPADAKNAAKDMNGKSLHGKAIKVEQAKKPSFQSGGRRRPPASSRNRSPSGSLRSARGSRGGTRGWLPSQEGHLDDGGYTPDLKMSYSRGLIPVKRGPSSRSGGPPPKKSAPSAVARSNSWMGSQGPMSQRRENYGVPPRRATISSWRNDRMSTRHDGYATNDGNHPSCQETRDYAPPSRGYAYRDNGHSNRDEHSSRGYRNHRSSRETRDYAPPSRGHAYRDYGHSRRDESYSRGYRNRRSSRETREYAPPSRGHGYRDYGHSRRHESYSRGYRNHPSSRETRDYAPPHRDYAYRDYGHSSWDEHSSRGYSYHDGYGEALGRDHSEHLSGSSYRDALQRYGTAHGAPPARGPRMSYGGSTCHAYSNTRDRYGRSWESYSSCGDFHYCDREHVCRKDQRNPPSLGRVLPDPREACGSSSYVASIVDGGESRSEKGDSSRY
UniProt P42696: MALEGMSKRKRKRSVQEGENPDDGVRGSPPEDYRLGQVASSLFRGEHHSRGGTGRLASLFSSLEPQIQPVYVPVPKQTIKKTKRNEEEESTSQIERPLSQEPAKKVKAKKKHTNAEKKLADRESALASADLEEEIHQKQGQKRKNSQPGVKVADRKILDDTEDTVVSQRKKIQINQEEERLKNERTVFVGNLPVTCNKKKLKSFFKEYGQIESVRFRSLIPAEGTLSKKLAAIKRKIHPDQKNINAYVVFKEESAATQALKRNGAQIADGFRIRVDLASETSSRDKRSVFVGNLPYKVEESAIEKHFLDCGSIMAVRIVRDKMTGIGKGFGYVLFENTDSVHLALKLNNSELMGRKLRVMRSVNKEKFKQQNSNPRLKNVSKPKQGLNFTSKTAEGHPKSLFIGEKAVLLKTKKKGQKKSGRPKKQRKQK
UniProt P98175: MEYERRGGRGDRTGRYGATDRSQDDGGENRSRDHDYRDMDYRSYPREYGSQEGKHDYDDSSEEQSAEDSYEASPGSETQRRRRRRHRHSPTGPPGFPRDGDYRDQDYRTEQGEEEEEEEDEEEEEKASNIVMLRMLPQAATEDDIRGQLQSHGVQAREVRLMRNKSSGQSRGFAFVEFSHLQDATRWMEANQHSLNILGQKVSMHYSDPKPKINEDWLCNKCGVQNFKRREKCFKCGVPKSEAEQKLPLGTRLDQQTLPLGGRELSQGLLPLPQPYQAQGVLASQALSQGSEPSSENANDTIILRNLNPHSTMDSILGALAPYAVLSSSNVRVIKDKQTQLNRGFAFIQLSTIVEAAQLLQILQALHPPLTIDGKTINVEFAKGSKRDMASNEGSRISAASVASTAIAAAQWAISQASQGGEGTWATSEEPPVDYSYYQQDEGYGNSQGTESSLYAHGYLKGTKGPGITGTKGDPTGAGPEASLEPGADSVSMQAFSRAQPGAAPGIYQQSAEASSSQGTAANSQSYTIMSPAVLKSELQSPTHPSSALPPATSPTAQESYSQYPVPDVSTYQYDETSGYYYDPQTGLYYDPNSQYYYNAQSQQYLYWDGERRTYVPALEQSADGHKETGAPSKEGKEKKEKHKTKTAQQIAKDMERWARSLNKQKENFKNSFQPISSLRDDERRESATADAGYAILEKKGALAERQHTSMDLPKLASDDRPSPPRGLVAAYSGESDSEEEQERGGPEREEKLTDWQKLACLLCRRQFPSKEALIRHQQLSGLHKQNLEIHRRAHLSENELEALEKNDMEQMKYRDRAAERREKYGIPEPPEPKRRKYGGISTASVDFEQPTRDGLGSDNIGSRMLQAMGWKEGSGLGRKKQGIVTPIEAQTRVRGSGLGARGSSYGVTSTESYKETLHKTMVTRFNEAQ
UniProt Q9BWF3: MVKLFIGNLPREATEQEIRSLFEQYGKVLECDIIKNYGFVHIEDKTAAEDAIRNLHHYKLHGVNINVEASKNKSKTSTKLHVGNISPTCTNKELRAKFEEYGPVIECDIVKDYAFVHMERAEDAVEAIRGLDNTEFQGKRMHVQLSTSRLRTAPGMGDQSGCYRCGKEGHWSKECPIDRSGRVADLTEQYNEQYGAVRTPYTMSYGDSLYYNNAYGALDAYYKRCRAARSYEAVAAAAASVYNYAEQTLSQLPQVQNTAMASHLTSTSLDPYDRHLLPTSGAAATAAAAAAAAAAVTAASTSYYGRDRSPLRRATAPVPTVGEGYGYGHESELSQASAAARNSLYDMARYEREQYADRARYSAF
UniProt Q96I51, whole entry, looked up: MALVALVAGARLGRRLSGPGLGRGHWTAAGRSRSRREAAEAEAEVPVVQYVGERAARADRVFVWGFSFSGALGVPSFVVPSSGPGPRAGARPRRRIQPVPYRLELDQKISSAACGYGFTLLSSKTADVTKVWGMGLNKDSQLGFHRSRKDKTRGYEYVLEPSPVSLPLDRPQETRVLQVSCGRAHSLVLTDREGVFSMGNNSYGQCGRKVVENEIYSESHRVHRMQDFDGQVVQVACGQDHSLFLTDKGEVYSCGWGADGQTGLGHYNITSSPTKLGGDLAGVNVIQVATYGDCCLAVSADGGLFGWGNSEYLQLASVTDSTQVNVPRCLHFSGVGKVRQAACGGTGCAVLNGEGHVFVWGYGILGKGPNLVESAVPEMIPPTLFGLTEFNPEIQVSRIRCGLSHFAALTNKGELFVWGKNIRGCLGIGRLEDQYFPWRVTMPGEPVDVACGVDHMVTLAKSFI
UniProt P52756, whole entry, looked up: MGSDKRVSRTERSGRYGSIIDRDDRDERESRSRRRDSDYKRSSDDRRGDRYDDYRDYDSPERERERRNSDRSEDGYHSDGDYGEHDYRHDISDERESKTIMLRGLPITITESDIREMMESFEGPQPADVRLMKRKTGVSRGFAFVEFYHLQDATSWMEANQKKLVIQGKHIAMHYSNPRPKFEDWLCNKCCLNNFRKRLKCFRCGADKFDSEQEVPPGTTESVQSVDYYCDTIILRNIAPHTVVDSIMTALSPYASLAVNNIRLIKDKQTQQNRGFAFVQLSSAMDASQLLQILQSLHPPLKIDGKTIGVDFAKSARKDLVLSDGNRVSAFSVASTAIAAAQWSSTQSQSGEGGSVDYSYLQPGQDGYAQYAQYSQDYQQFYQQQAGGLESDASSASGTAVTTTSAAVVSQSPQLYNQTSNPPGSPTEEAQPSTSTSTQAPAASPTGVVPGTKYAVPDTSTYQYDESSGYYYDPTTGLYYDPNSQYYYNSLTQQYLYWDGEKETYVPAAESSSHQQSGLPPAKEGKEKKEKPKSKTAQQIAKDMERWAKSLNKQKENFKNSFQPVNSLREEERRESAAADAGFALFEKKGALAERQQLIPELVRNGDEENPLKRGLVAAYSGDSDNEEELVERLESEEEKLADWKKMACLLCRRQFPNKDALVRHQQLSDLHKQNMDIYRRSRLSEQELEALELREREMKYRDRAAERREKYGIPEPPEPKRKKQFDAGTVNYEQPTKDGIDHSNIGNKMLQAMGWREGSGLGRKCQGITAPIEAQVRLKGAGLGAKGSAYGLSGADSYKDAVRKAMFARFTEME
UniProt Q00765: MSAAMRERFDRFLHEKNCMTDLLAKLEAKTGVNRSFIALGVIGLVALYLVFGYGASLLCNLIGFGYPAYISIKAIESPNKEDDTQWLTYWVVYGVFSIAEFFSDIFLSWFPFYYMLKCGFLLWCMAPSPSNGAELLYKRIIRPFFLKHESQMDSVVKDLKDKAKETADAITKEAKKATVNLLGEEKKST
UniProt Q969G6: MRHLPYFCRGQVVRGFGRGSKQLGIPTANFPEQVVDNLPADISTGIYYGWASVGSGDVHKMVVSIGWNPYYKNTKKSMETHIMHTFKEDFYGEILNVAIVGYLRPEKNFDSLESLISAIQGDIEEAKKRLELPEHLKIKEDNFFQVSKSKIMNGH
UniProt Q09028, whole entry, looked up: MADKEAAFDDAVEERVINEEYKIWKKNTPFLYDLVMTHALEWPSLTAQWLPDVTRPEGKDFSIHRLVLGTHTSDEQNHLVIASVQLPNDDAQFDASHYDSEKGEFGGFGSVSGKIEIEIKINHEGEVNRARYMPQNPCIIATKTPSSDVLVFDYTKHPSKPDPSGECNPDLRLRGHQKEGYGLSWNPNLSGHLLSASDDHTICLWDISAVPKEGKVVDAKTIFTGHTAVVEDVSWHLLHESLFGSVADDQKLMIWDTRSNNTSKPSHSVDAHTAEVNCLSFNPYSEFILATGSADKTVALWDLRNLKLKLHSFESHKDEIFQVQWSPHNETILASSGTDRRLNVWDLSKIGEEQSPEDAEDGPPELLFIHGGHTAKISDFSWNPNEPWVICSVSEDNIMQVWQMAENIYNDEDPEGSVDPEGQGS
UniProt Q96AA3: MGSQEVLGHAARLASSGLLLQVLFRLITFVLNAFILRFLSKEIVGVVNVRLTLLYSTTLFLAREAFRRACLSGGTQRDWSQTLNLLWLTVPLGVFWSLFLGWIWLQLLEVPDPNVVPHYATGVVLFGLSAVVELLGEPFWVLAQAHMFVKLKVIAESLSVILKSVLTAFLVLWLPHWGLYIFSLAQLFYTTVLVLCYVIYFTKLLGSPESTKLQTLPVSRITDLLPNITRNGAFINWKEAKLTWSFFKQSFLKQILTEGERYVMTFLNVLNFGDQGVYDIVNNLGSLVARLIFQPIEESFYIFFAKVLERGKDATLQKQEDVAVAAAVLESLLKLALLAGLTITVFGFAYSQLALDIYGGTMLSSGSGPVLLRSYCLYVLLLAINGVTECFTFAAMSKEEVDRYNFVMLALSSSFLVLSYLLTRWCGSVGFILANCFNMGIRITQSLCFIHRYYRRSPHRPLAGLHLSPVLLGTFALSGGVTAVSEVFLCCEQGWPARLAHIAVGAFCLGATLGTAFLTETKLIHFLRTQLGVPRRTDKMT
UniProt Q15283: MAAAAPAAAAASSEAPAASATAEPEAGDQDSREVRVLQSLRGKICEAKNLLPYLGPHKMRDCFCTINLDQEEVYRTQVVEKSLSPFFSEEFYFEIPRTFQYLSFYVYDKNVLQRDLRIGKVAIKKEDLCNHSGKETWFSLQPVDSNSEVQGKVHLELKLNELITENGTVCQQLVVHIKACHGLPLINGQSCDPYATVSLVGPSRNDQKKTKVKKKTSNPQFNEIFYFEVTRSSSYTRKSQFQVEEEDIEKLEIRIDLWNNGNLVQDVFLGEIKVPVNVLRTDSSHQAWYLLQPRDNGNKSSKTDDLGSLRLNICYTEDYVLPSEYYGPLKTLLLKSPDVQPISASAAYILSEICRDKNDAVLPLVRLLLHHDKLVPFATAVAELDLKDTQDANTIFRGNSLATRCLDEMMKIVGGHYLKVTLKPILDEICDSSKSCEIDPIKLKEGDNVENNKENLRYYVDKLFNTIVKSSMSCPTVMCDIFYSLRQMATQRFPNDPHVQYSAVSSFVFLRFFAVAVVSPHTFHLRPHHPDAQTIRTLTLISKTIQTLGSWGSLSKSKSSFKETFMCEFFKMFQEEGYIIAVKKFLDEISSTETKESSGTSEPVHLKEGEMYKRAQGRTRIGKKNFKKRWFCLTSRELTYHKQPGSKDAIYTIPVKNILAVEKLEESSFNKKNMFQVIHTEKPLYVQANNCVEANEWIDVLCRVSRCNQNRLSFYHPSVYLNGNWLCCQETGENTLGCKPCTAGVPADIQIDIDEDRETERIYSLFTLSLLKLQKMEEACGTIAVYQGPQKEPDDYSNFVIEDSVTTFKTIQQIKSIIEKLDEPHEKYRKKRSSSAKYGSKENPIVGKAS

[2] = compound: CC1=C(SC2=C1C(=N[C@H](C3=NN=C(N32)C)CC(=O)N)C4=CC=C(C=C4)Cl)C
Method in brief: as §1

[3] = compound: CC1=C2C(=CC=C1)N=C(N(C2=O)C3=CC=CC=C3C)CN4C=NC5=C(N=CN=C54)N
Method in brief: as §1

[4] = compound: Cc1sc2c(c1C)C(c1ccc(Cl)cc1)=N[C@@H](CC(=O)OC(C)(C)C)c1nnc(C)n1-2
Method in brief: as §1

[5] = compound: c1ccc([C@@H]2C[C@H]2NC2CCNCC2)cc1
Method in brief: as §1

Row | Target | log2 fold change [1] | log2 fold change [2] | log2 fold change [3] | log2 fold change [4] | log2 fold change [5]
1 | RBMX (UniProt P38159) | inactive: 0.089 | inactive: -0.01 | inactive: -0.004 | inactive: -0.015 | inactive: -0.072
2 | RASA3 (UniProt Q14644) | inactive: -0.066 | inactive: 0.149 | inactive: 0.078 | inactive: 0.078 | inactive: 0.047
3 | RERE (UniProt Q9P2R6) | inactive: 0.016 | inactive: 0.037 | inactive: -0.041 | inactive: -0.035 | inactive: -0.129
4 | RBM14 (UniProt Q96PK6) | inactive: 0.191 | inactive: -0.046 | inactive: 0.008 | inactive: 0.066 | inactive: 0.044
5 | RCN1 (UniProt Q15293) | inactive: 0.014 | inactive: 0.032 | inactive: -0.003 | inactive: -0.032 | inactive: 0.007
6 | RBCK1 (UniProt Q9BYM8) | inactive: -0.114 | inactive: 0.039 | inactive: 0.041 | inactive: -0.049 | inactive: 0.069
7 | REEP4 (UniProt Q9H6H4) | inactive: -0.037 | inactive: 0.071 | inactive: 0.031 | inactive: 0.012 | inactive: 0.007
8 | RBMY1E (UniProt A6NEQ0) | inactive: 0.107 | inactive: -0.012 | inactive: 0.057 | inactive: -0.026 | inactive: -0.077
9 | RFX5 (UniProt P48382) | inactive: -0.069 | inactive: 0.071 | inactive: 0.087 | inactive: 0.057 | inactive: 0.152
10 | RBM34 (UniProt P42696) | inactive: 0.048 | inactive: 0.012 | inactive: -0.013 | inactive: 0.05 | inactive: 0.021
11 | RBM10 isoform 5 (UniProt P98175) | inactive: 0.046 | inactive: -0.038 | inactive: 0.044 | inactive: -0.018 | inactive: -0.049
12 | RDH14 (UniProt Q9HBH5) | inactive: 0.123 | inactive: -0.016 | inactive: -0.076 | inactive: 0.102 | inactive: -0.058
13 | RBM4 (UniProt Q9BWF3) | inactive: 0 | inactive: 0.016 | inactive: 0.022 | inactive: 0.03 | inactive: -0.007
14 | RFLNB (UniProt Q8N5W9) | inactive: 0.028 | inactive: -0.033 | inactive: 0.138 | inactive: 0.015 | inactive: 0.004
15 | RCC1L (UniProt Q96I51) | inactive: 0.008 | inactive: 0.026 | inactive: 0.068 | inactive: -0.021 | inactive: 0.007
16 | RBM5 (UniProt P52756) | inactive: -0.074 | inactive: 0.08 | inactive: 0.062 | inactive: 0.146 | inactive: 0.103
17 | RFC1 (UniProt P35251) | inactive: 0.004 | inactive: 0.047 | inactive: 0.037 | inactive: 0.095 | inactive: -0.018
18 | REEP5 (UniProt Q00765) | inactive: 0.007 | inactive: 0.009 | inactive: 0.028 | inactive: 0.022 | inactive: -0.092
19 | RFK (UniProt Q969G6) | inactive: -0.035 | inactive: 0.008 | inactive: 0.006 | inactive: 0.009 | inactive: 0.034
20 | RER1 (UniProt O15258) | inactive: -0.007 | inactive: -0.004 | inactive: 0.037 | inactive: 0.058 | inactive: -0.024
21 | RBBP4 (UniProt Q09028) | inactive: 0.022 | inactive: 0.033 | inactive: -0.013 | inactive: 0.006 | inactive: -0.066
22 | RCOR3 isoform 3 (UniProt Q9P2K3) | inactive: -0.026 | inactive: 0.009 | inactive: 0.046 | inactive: 0.011 | active: 0.394
23 | RFT1 (UniProt Q96AA3) | inactive: 0.032 | inactive: -0.058 | inactive: 0.048 | inactive: -0.008 | inactive: 0.07
24 | RASA2 (UniProt Q15283) | inactive: -0.07 | inactive: 0.045 | inactive: 0.058 | inactive: 0.025 | inactive: 0.037
25 | RETSAT (UniProt Q6NUM9) | inactive: 0.103 | inactive: -0.037 | inactive: 0.148 | inactive: -0.145 | inactive: -0.015
26 | RC3H1 (UniProt Q5TC82) | inactive: 0 | inactive: 0.016 | inactive: 0.012 | inactive: 0.037 | inactive: -0.024
27 | RFX1 (UniProt P22670) | inactive: -0.002 | inactive: 0.085 | inactive: 0.023 | inactive: -0.006 | inactive: 0.018

A few values from above.
For log2 fold change [3], RBM4 (UniProt Q9BWF3) shows inactive: 0.022
For log2 fold change [2], REEP4 (UniProt Q9H6H4) shows inactive: 0.071

From the supplement of paper PMC10849652
